Out of some 390,000 compounds screened, about 910 (0.23%) were called active. This list was built around the results that the source calls inconclusive (neither active nor inactive); the mix of calls is not that of the screen. Calls come from the whole dose curve; as a rule, active = well fitted inhibition curve with a large enough effect; inconclusive = small, poorly fitted or top-dose-only effect; inactive = no such curve, though single readings can be large or run the other way. Where the call is inconclusive, the potency comes from a doubtful curve fit.
molecular target: Ubiquitin carboxyl-terminal hydrolase 1 (Homo sapiens) (UniProt O94782); assay: Inhibitors of USP1/UAF1: Primary Screen; conditions: recombinant USP1/UAF1, Ub-Rhodamine cleavage fluorescence; activity change, negative = inhibition: at 57.1 µM (top of the series); note: nearly all actives have a fitted effect of over 60% in size
Method in brief: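 1 nM enzyme complex + cpd, 15 min RT; start with Ub-Rho 150nM final; kinetic fluorescence ex 480/em 540, 6 reads q60 s. Buffer 50mM HEPES pH 7.8, 0.5mM EDTA, 0.1 mg/ml BSA, 1mM TCEP, 0.01% Tween-20.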
% is set by controls: 0 for no effect and ±100 for the full control effect; potency is the fitted concentration of half-maximal effect.

Protein sequences, listed by entry. Tags and fused reporters are not part of them. Lines headed by an entry give the natural chain unless they say otherwise; changes in a name come on top.
UniProt O94782: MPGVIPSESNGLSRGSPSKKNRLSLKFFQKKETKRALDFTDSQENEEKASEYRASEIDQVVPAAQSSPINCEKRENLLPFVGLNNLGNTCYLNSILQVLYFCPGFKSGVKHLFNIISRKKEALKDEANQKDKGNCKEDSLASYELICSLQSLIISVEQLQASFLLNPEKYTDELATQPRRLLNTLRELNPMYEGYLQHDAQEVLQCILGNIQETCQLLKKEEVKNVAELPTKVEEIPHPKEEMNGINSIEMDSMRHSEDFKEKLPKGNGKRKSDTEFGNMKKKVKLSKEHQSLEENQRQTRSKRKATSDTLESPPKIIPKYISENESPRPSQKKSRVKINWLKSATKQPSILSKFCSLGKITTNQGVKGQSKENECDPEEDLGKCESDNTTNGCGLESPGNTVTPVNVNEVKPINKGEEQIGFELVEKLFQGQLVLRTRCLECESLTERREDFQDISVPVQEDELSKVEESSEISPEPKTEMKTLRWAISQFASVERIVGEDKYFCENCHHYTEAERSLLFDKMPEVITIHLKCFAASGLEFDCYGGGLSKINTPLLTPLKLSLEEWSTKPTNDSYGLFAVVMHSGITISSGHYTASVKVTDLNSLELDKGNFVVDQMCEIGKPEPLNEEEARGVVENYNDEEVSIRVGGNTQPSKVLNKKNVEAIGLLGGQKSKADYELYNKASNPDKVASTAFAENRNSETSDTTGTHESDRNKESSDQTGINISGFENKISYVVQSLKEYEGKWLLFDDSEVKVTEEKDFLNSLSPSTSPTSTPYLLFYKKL

Potency, inconclusive:
CN(C)C1=NC[C@H](Cc2ccccc2)N1CC1CCC(C(C)(C)C)CC1 (some centres undefined) 56.2 µM [inhibitor, partial curve, poor fit]
Cc1cccc(NC(=O)C2CCCN(S(=O)(=O)c3ccc4c(c3)oc(=O)n4C)C2)c1C (centres undefined) 39.8 µM [inhibitor, partial curve]
COc1ccc(C(=O)Nc2nc(-c3ccc([N+](=O)[O-])cc3)c(-c3ccc(OC)cc3)s2)cc1 31.6 µM [inhibitor, single point]
COc1ccc(NC2CCCN(C(=O)c3cccc(N4CCNC4=O)c3)C2)cc1 (centres undefined) 0.316 µM [inhibitor, full curve, poor fit]
CC1CC(=O)Nc2ccccc2N1C(=O)CN1C(=O)C(=O)N(C)C1=O (centres undefined) 7.08 µM [inhibitor, single point]
COc1ccccc1N/C(=N/S(=O)(=O)c1ccc(C)cc1)c1ccc(Cl)cc1 35.5 µM [inhibitor, partial curve, poor fit]
Cc1ccc(C)c2nc3sc(C(=O)N4CCOCC4)c(N)c3cc12 79.4 µM [inhibitor, partial curve, poor fit]
CCCNC(=O)C(Cc1ccc(OC)cc1)NC(=O)c1ccc(Cl)cc1 (centres undefined) 7.94 µM [inhibitor, partial curve]
CON/C=C(\C=Nc1ccc(C(F)(F)F)cc1)c1ncc(C(F)(F)F)cc1Cl 44.7 µM [inhibitor, partial curve, poor fit]
CCn1c2ccccc2c2cc(CN3CCN(Cc4ccc(Cl)cc4)CC3)ccc21 1 µM [inhibitor, full curve, poor fit]
CC(=O)Nc1cc(C(=O)NCc2ccc(F)cc2)ccc1S(=O)(=O)c1ccc(C)cc1 4.47 µM [inhibitor, partial curve, poor fit]
Nc1cc(-c2ccc(Cl)cc2)nn1S(=O)(=O)c1ccc(Cl)cc1 35.5 µM [inhibitor, single point]
CCN(CC)CCCNC(=O)Cn1ncc2c3ccccc3n(Cc3ccccc3)c2c1=O 0.708 µM [inhibitor, full curve, poor fit]
CC(C)c1ccc(CN2CCC(n3nccc3NC(=O)C3CCCC3)CC2)cc1 8.91 µM [inhibitor, partial curve, poor fit]
Cc1ccc(-c2[nH]ncc2/C=N/n2c(C)nc3ccccc3c2=O)cc1 31.6 µM [inhibitor, partial curve]
Cc1cc(O)c(C(c2ccccc2)N2CCN(c3ccccc3)CC2)c(=O)n1Cc1ccco1 (centres undefined) 0.0891 µM [inhibitor, full curve, poor fit]
S=c1nc(-c2ccc(Br)cc2)[nH]c2ccccc12 22.4 µM [inhibitor, partial curve]
O=C1c2ccc3c4c(ccc(c24)C(=O)N1NC(=O)C(F)(F)F)CC3 31.6 µM [inhibitor, single point]
COc1ccc(C(=O)N2CCC(n3nnc4cc(F)ccc43)CC2)cc1OC 5.62 µM [inhibitor, partial curve, poor fit]
CN(C)CCCN(C(=O)c1ccc([N+](=O)[O-])o1)c1nc2cc3c(cc2s1)OCO3 31.6 µM [inhibitor, partial curve]
Cc1cccc(C)c1NC(=O)Cn1cc(C(=O)c2ccco2)c2ccccc21 7.94 µM [inhibitor, partial curve]
O=C(Cn1ncc2c3ccccc3n(Cc3cccc(Cl)c3)c2c1=O)NCCCc1ccccc1 39.8 µM [inhibitor, partial curve, poor fit]
Cc1cccc(C(=O)Nc2nnc(S(=O)(=O)N(C)Cc3ccc(Cl)cc3)s2)c1 2.82 µM [inhibitor, full curve]
CSc1nc(Nc2ccc(C)cc2C)cc(-c2ccccc2)n1 44.7 µM [inhibitor, partial curve, poor fit]
Cc1nc2cc(C(=O)NCCC3=CCCCC3)ccc2n1-c1ccc(Br)cc1 39.8 µM [inhibitor, partial curve]
Cc1c(/C=C2\SC(=O)N(CC(=O)Nc3ccc4c(c3)OCO4)C2=O)c2ccccc2n1C 2 µM [inhibitor, full curve]
COc1cc(/C=C2\SC(c3ccc(C)cc3)=NC2=O)cc(OC)c1O 39.8 µM [inhibitor, partial curve, poor fit]
Cc1ccc(-c2nnc(Nc3ccc(Br)cc3)c3ccccc23)cc1S(=O)(=O)NCC1CCCO1 (centres undefined) 2 µM [inhibitor, partial curve]
Cc1ccc(S(=O)(=O)Nc2cc(=O)[nH]c(SCC(=O)Nc3ccccc3Cl)n2)cc1 14.1 µM [inhibitor, partial curve]
Cc1ccc(Cn2c(C(=O)O)c(CNC3CCCCC3)c3ccc(C)cc32)cc1 63.1 µM [inhibitor, partial curve, poor fit]
CCN(C(=O)c1cc2c(=O)oc3ccccc3c2s1)c1ccc(C)c(C)c1 35.5 µM [inhibitor, partial curve]
O=C(CNC(=O)COc1ccccc1)NCCc1ccccn1 5.01 µM [inhibitor, partial curve]
C[C@H](CO)N1C[C@H](C)[C@@H](CN(C)S(=O)(=O)c2ccc(F)cc2)Oc2ccc(NS(=O)(=O)c3cccs3)cc2C1=O 39.8 µM [inhibitor, single point]
O=C(c1ccoc1)N1CCC2(CC1)Oc1ccc(F)cc1C(=O)C21CC(c2ccc(Cl)cc2)=NO1 (centres undefined) 0.316 µM [inhibitor, full curve, poor fit]
CN1CCN(C(=S)NC(=O)/C=C/c2cccs2)CC1 3.98 µM [inhibitor, single point]
CCN(CC)C(=O)c1nc[nH]c1C(=O)N(C)Cc1ccccc1 2.82 µM [inhibitor, full curve]
CCOc1ccc(C2CC(=O)NC(NC(=O)c3ccc(C)cc3)=N2)cc1 (centres undefined) 11.2 µM [inhibitor, partial curve]
CCC(=O)Nc1ccc(S(=O)(=O)N2CCOCC2)cc1 1.41 µM [inhibitor, full curve, poor fit]
CCO[C@H]1OC(C(=O)O)=C[C@@H](c2ccc3c(c2)OCO3)[C@@H]1CCCO 35.5 µM [inhibitor, single point]
COc1ccccc1-c1cccc([C@@H]2C[C@H]3[C@H](CON3C)CN2Cc2ccccc2)c1 79.4 µM [inhibitor, partial curve, poor fit]
CCN1CCN(C2=C(NS(=O)(=O)c3ccc(Br)cc3)C(=O)c3ccccc3C2=O)CC1 25.1 µM [inhibitor, partial curve]
CCOc1cccc(/C=C/c2ccc3cccc(O)c3n2)c1O 15.8 µM [inhibitor, partial curve]
CCN1CCc2nc(NC(=O)CC(c3ccccc3)c3ccccc3)sc2C1 44.7 µM [inhibitor, partial curve]
Cc1ccc(Cl)cc1NC(=O)c1cc2c(=O)n3cccc(C)c3nc2n1C 22.4 µM [inhibitor, partial curve, poor fit]

Potency, inactive:
COc1cccc(N2C(=O)C(CC(=O)Nc3ccccc3)N(CCc3sccc3C)C2=O)c1 (centres undefined)
O=C1c2ccccc2C(=O)N1CCSc1ccccc1
N#Cc1c(-c2ccccc2)oc(=O)c2ccccc12
Cc1ccc(C)c(N(C)C(=O)c2cc3c(s2)-c2ccccc2OC3)c1
Cc1ccc(C(=O)N2CCN3C(=O)c4ccccc4C23c2ccccc2)cc1 (centres undefined)
COc1ccc2c(C)c(CCC(=O)NCCc3ccc(OC)c(OC)c3)c(=O)oc2c1
CCc1cccc(C)c1NC(=O)CCCn1c(C)c2cnn(-c3ccccc3)c(=O)c2c1C
Cc1ccc2oc(-c3ccc(Cl)cc3)c(O)c(=O)c2c1
CC[C@]1(c2ccccc2)C(=O)N(C(=O)OC)N1C(=O)OC
O=C1COc2ccc(-c3cc(-c4ccc(Cl)cc4)c4c(n3)-c3ccccc3OC4)cc2N1
O=C(CN1CCCCC1)Nc1cccc(Cl)c1
CC(C)Oc1ccc(C(CCNCc2ccc(O)cc2)c2ccccc2)cc1 (centres undefined)
CN(C(=O)COC(=O)C1CCN(S(=O)(=O)c2ccc(Cl)cc2)CC1)C1CCS(=O)(=O)C1 (centres undefined)
Cc1cc(C)c(NC(=O)CCN2C(=O)c3ccccc3Sc3ncccc32)c(C)c1
CC(c1ccccc1)N1CCC(CNC(=S)Nc2cccc(Cl)c2)C1 (centres undefined)
CCCOc1cc(N(CC)CC)ccc1/C=C(/C#N)c1nc2ccc(C)cc2[nH]1
CCN(CC)c1nc2c(S(=O)(=O)c3ccccc3)nnn2c2ccc(Cl)cc12
Cc1ccc(C(=O)NCC(c2ccc3c(c2)OCO3)N2CCN(c3ccc(F)cc3)CC2)cc1 (centres undefined)
OC(COC(c1ccc(F)cc1)c1ccc(F)cc1)CN1CCCC(C(F)(F)F)C1 (centres undefined)

A stretch from the list above:
Potency, inactive:
COc1cccc(N2C(=O)C(CC(=O)Nc3ccccc3)N(CCc3sccc3C)C2=O)c1 (centres undefined)
O=C1c2ccccc2C(=O)N1CCSc1ccccc1
N#Cc1c(-c2ccccc2)oc(=O)c2ccccc12
Cc1ccc(C)c(N(C)C(=O)c2cc3c(s2)-c2ccccc2OC3)c1

Fetched by compound from the list above:
Potency, inactive:
N#Cc1c(-c2ccccc2)oc(=O)c2ccccc12
CC(c1ccccc1)N1CCC(CNC(=S)Nc2cccc(Cl)c2)C1 (centres undefined)
CC(C)Oc1ccc(C(CCNCc2ccc(O)cc2)c2ccccc2)cc1 (centres undefined)

Following part:

Activity change, negative = inhibition, inconclusive:
Cc1cc(C)n2nc(-c3sccc3-n3cccc3)cc2n1 -34.6% [inhibitor]

— PubChem BioAssay AID743255 (National Center for Advancing Translational Sciences (NCATS), 2014)
